# Assay results taken from the supplement of paper PMC8728848.
# Some of the results follow.
# B1: GS13971A-bth-447-22-447 (Bacteroides thetaiotaomicron) (protein)
# chain: EDVDNERSKGMFSASQSGFSTIEVYDLGPLNKIDLSIAKAGLEDTGGTVTFSVEQSLLDSLNNADGTSYQLLPPECYTIENATYSVSPGGDRRVTGGSLVYDPHKIYNLCGFDELKYVLPLRVSSTGTPMNSDRTATLYGFIVKEAIVRLASTGGDFVVEGGTTTSPMNLDTEISFENEWDLTTSFATKGADYVDNYNSANSTYYIPLPSDFYTLPDVTIAKGKTTGGSAISLLGETLPPGNYLLPVSLGGLSGQGDASINIDKETVANYFVIKQGGPINRDHWTVTANTEEKTGEVSAAYPHNGQTISLIDGEINTFWHSKWQGGEVAPPYEIILDMGKENSVSQLGLIARQNALTSMNLEIYAGDDGETWNLIGKYFFDGSIKTEQMVPVKACDARWIRIYIPTLGSGSSVGHLAEIYVYGTDK
# Columns and labels:
# Experiment in all cases: glycan array binding signal (z-score within array); higher = stronger binding
# Conditions in all cases: glycan notation: IUPAC condensed, linker removed
# [1] = target: Gal(b1-4)GlcNAc(b1-3)Gal(b1-4)GlcNAc(b1-6)[Gal(b1-3)]GalNAc
# Method in brief: (§1)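 From the Consortium for Functional Glycomics database, 3228 arrays were curated, keeping only those whose protein sequence was available. Binding is given as a within-array Z-score averaged across arrays sharing a protein sequence and across linkers. Negative Z-scores can be read as non-binding.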
# [2] = target: Gal(b1-4)GlcNAc(b1-3)Gal(b1-4)[Fuc(a1-3)]GlcNAc(b1-3)Gal(b1-4)[Fuc(a1-3)]GlcNAc
# Method in brief: as §1
# [3] = target: Gal(b1-4)GlcNAc(b1-3)GalNAc
# Method in brief: as §1
# [4] = target: Gal(b1-4)GlcNAc(b1-3)[Fuc(a1-3)GlcNAc(b1-6)]Gal(b1-4)Glc
# Method in brief: as §1
# [5] = target: Gal(b1-4)GlcNAc(b1-3)[Gal(b1-4)GlcNAc(b1-6)]Gal(b1-4)GlcNAc
# Method in brief: as §1
# [6] = target: Gal(b1-4)GlcNAc(b1-3)[GlcNAc(b1-6)]Gal(b1-4)GlcNAc
# Method in brief: as §1
# [7] = target: Gal(b1-4)GlcNAc(b1-6)Gal(b1-4)GlcNAc
# Method in brief: as §1
# [8] = target: Gal(b1-4)GlcNAc(b1-6)GalNAc
# Method in brief: as §1
# [9] = target: Gal(b1-4)GlcNAc(b1-6)[Gal(b1-3)]GalNAc
# Method in brief: as §1
# [10] = target: Gal(b1-4)GlcNAc(b1-6)[Gal(b1-4)GlcNAc(b1-3)]GalNAc
# Method in brief: as §1
# [11] = target: Gal(b1-4)GlcNAc6P
# Method in brief: as §1
# [12] = target: Gal(b1-6)Gal
# Method in brief: as §1
# [13] = target: Gal3S(b1-3)GalNAc
# Method in brief: as §1
# [14] = target: Gal3S(b1-3)GlcNAc
# Method in brief: as §1
# [15] = target: Gal3S(b1-3)[Fuc(a1-4)]GlcNAc
# Method in brief: as §1
# [16] = target: Gal3S(b1-4)Glc
# Method in brief: as §1
# [17] = target: Gal3S(b1-4)Glc6S
# Method in brief: as §1
# [18] = target: Gal3S(b1-4)GlcNAc
# Method in brief: as §1
# [19] = target: Gal3S(b1-4)[Fuc(a1-3)]Glc6S
# Method in brief: as §1
# [20] = target: Gal3S(b1-4)[Fuc(a1-3)]GlcNAc
# Method in brief: as §1
# [21] = target: Gal3S(b1-4)[Fuc(a1-3)]GlcNAc6S
# Method in brief: as §1
# [22] = target: Gal3S4S(b1-4)GlcNAc
# Method in brief: as §1
# [23] = target: Gal3S6S(b1-4)GlcNAc
# Method in brief: as §1
# [24] = target: Gal3S6S(b1-4)GlcNAc6S
# Method in brief: as §1
# [25] = target: Gal4S(b1-4)GlcNAc
# Method in brief: as §1
# [26] = target: Gal4S6S(b1-4)GlcNAc
# Method in brief: as §1
# [27] = target: Gal6P(b1-4)GlcNAc
# Method in brief: as §1
# [28] = target: Gal6S(b1-3)GlcNAc
# Method in brief: as §1
# [29] = target: Gal6S(b1-3)GlcNAc6S
# Method in brief: as §1
# [30] = target: Gal6S(b1-4)Glc
# Method in brief: as §1
# [31] = target: Gal6S(b1-4)Glc6S
# Method in brief: as §1
# [32] = target: Gal6S(b1-4)GlcNAc
# Method in brief: as §1
# [33] = target: Gal6S(b1-4)GlcNAc6S
# Method in brief: as §1
# [34] = target: GalNAc(a1-3)Gal
# Method in brief: as §1
# [35] = target: GalNAc(a1-3)GalNAc
# Method in brief: as §1
# [36] = target: GalNAc(a1-3)GalNAc(b1-3)Gal(a1-4)Gal(b1-4)Glc
# Method in brief: as §1
# [37] = target: GalNAc(a1-3)GalNAc(b1-3)Gal(a1-4)Gal(b1-4)GlcNAc
# Method in brief: as §1
binder,measurement,setting,value
B1,glycan array binding signal (z-score),[1],-0.527
same,glycan array binding signal (z-score),[2],0.32
same,glycan array binding signal (z-score),[3],-0.398
same,glycan array binding signal (z-score),[4],1.07
same,glycan array binding signal (z-score),[5],0.569
same,glycan array binding signal (z-score),[6],0.129
same,glycan array binding signal (z-score),[7],1.71
same,glycan array binding signal (z-score),[8],-0.228
same,glycan array binding signal (z-score),[9],0.501
same,glycan array binding signal (z-score),[10],-0.463
same,glycan array binding signal (z-score),[11],0.031
same,glycan array binding signal (z-score),[12],-0.497
same,glycan array binding signal (z-score),[13],0.068
same,glycan array binding signal (z-score),[14],0.338
same,glycan array binding signal (z-score),[15],-0.176
same,glycan array binding signal (z-score),[16],-0.609
same,glycan array binding signal (z-score),[17],-0.714
same,glycan array binding signal (z-score),[18],0.517
same,glycan array binding signal (z-score),[19],0.93
same,glycan array binding signal (z-score),[20],0.73
same,glycan array binding signal (z-score),[21],0.338
same,glycan array binding signal (z-score),[22],0.238
same,glycan array binding signal (z-score),[23],-0.552
same,glycan array binding signal (z-score),[24],0.927
same,glycan array binding signal (z-score),[25],0.498
same,glycan array binding signal (z-score),[26],1.53
same,glycan array binding signal (z-score),[27],-0.674
same,glycan array binding signal (z-score),[28],-1.57
same,glycan array binding signal (z-score),[29],-0.017
same,glycan array binding signal (z-score),[30],-0.281
same,glycan array binding signal (z-score),[31],0.797
same,glycan array binding signal (z-score),[32],1.23
same,glycan array binding signal (z-score),[33],0.453
same,glycan array binding signal (z-score),[34],-1.72
same,glycan array binding signal (z-score),[35],1.7
same,glycan array binding signal (z-score),[36],0.375
same,glycan array binding signal (z-score),[37],-0.299

# In a second layout: entries from further up
binder | measurement | setting | value
B1 | glycan array binding signal (z-score) | [1] | -0.527
same | glycan array binding signal (z-score) | [2] | 0.32
